Measurements reported in PubChem BioAssay AID1508597 (Cure First, 2020).
Screen: 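Survival screen with siRNA in ovarian cancer cells derived from patients, with or without rucaparib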 (primary screen). Cells: human ovarian carcinoma lines grown from tumours: OCI-P5x (papillary serous) and OCI-C5x (clear cell). Reagent: siRNA pool against human genes, 1.25 pmol siRNA per well. Timing: 72 h or 96 h, depending on the cell culture. Conditions: rucaparib 20 µM (about IC30) or vehicle, present until read-out. Rucaparib or vehicle: Rucaparib. Cell line: OCI-C5x (clear cell). Measurement: 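Luminescent ATP-based viability assay read 72 or 96 h after transfection, depending on culture, given as normalised percent viability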. Direction: viability, normalised: higher = more viable cells remaining. Hit rule: 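a well counts as a hit if its normalised viability is under 80 percent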. Meaning of the calls: active = viability under 80%; inactive = viability 80% or more.
Shown is an unselected part of the about 2,100 reagents, under one of the conditions tested. 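Calls flag viability under 80% in either arm, not effects specific to rucaparib; the reference for percent is not stated.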 The numbers tell different reagents against one gene apart. Some reagents were tested in more than one well and are listed for each. Not stated in the record: the 100% reference.

gene | reagent | technical replicate | viability, normalised (%) | outcome
BRD1 (bromodomain containing 1) | 1 | 1 | 48.8 | active
BRD1 (bromodomain containing 1) | 1 | 2 | 32.9 | active
BRD1 (bromodomain containing 1) | 1 | 3 | 33.4 | active
PRKCD (protein kinase C delta) | 1 | 1 | 43.8 | active
PRKCD (protein kinase C delta) | 1 | 2 | 66.1 | active
PRKCD (protein kinase C delta) | 1 | 3 | 51.8 | active
BAZ1B (bromodomain adjacent to zinc finger domain 1B) | 1 | 1 | 56.1 | active
BAZ1B (bromodomain adjacent to zinc finger domain 1B) | 1 | 2 | 43 | active
BAZ1B (bromodomain adjacent to zinc finger domain 1B) | 1 | 3 | 51.1 | active
EPHB3 (EPH receptor B3) | 1 | 1 | 42.9 | active
EPHB3 (EPH receptor B3) | 1 | 2 | 45.4 | active
EPHB3 (EPH receptor B3) | 1 | 3 | 51.9 | active
TIMM50 (translocase of inner mitochondrial membrane 50) | 1 | 1 | 58.8 | active
TIMM50 (translocase of inner mitochondrial membrane 50) | 1 | 2 | 58.2 | active
TIMM50 (translocase of inner mitochondrial membrane 50) | 1 | 3 | 35.9 | active
MPP3 (MAGUK p55 scaffold protein 3) | 1 | 1 | 51.2 | active
MPP3 (MAGUK p55 scaffold protein 3) | 1 | 2 | 50.2 | active
MPP3 (MAGUK p55 scaffold protein 3) | 1 | 3 | 47.4 | active
HELQ (helicase, POLQ like) | 1 | 1 | 68.8 | active
HELQ (helicase, POLQ like) | 1 | 2 | 37.4 | active
HELQ (helicase, POLQ like) | 1 | 3 | 51.8 | active
HELQ (helicase, POLQ like) | 2 | 1 | 59.9 | active
HELQ (helicase, POLQ like) | 2 | 2 | 63.8 | active
HELQ (helicase, POLQ like) | 2 | 3 | 44.8 | active
TAF5 (TATA-box binding protein associated factor 5) | 1 | 1 | 59.1 | active
TAF5 (TATA-box binding protein associated factor 5) | 1 | 2 | 62.7 | active
TAF5 (TATA-box binding protein associated factor 5) | 1 | 3 | 52.2 | active
RPS6KA5 (ribosomal protein S6 kinase A5) | 1 | 1 | 49.8 | active
RPS6KA5 (ribosomal protein S6 kinase A5) | 1 | 2 | 63.9 | active
RPS6KA5 (ribosomal protein S6 kinase A5) | 1 | 3 | 47.5 | active
ERCC3 (ERCC excision repair 3, TFIIH core complex helicase subunit) | 1 | 1 | 49.3 | active
ERCC3 (ERCC excision repair 3, TFIIH core complex helicase subunit) | 1 | 1 | 40.6 | active
ERCC3 (ERCC excision repair 3, TFIIH core complex helicase subunit) | 1 | 2 | 39.4 | active
ERCC3 (ERCC excision repair 3, TFIIH core complex helicase subunit) | 1 | 2 | 44.2 | active
ERCC3 (ERCC excision repair 3, TFIIH core complex helicase subunit) | 1 | 3 | 51.5 | active
ERCC3 (ERCC excision repair 3, TFIIH core complex helicase subunit) | 1 | 3 | 43 | active
BCL3 (BCL3 transcription coactivator) | 1 | 1 | 69.2 | active
BCL3 (BCL3 transcription coactivator) | 1 | 2 | 58.6 | active
BCL3 (BCL3 transcription coactivator) | 1 | 3 | 69.6 | active
CLDN23 (claudin 23) | 1 | 1 | 47.3 | active
CLDN23 (claudin 23) | 1 | 2 | 52.2 | active
CLDN23 (claudin 23) | 1 | 3 | 33.4 | active
XPA (XPA, DNA damage recognition and repair factor) | 1 | 1 | 45.6 | active
XPA (XPA, DNA damage recognition and repair factor) | 1 | 2 | 63.4 | active
XPA (XPA, DNA damage recognition and repair factor) | 1 | 3 | 54 | active
MAPK15 (mitogen-activated protein kinase 15) | 1 | 1 | 44.6 | active
MAPK15 (mitogen-activated protein kinase 15) | 1 | 2 | 35.9 | active
MAPK15 (mitogen-activated protein kinase 15) | 1 | 3 | 29.9 | active
BLK (BLK proto-oncogene, Src family tyrosine kinase) | 1 | 1 | 76 | active
BLK (BLK proto-oncogene, Src family tyrosine kinase) | 1 | 2 | 70.9 | active
BLK (BLK proto-oncogene, Src family tyrosine kinase) | 1 | 3 | 49.4 | active
SP110 (SP110 nuclear body protein) | 1 | 1 | 30 | active
SP110 (SP110 nuclear body protein) | 1 | 2 | 28 | active
SP110 (SP110 nuclear body protein) | 1 | 3 | 28.5 | active
CDK11B (cyclin dependent kinase 11B) | 1 | 1 | 45 | active
CDK11B (cyclin dependent kinase 11B) | 1 | 2 | 51.3 | active
CDK11B (cyclin dependent kinase 11B) | 1 | 3 | 54.9 | active
MORC3 (MORC family CW-type zinc finger 3) | 1 | 1 | 41.1 | active
MORC3 (MORC family CW-type zinc finger 3) | 1 | 2 | 47.5 | active
MORC3 (MORC family CW-type zinc finger 3) | 1 | 3 | 38.4 | active
PFKFB2 (6-phosphofructo-2-kinase/fructose-2,6-biphosphatase 2) | 1 | 1 | 34.5 | active
PFKFB2 (6-phosphofructo-2-kinase/fructose-2,6-biphosphatase 2) | 1 | 2 | 38.2 | active
PFKFB2 (6-phosphofructo-2-kinase/fructose-2,6-biphosphatase 2) | 1 | 3 | 49.8 | active
POLR2E (RNA polymerase II, I and III subunit E) | 1 | 1 | 66.2 | active
POLR2E (RNA polymerase II, I and III subunit E) | 1 | 2 | 65.2 | active
POLR2E (RNA polymerase II, I and III subunit E) | 1 | 3 | 89 | inactive
SH3KBP1 (SH3 domain containing kinase binding protein 1) | 1 | 1 | 71.5 | active
SH3KBP1 (SH3 domain containing kinase binding protein 1) | 1 | 2 | 68.4 | active
SH3KBP1 (SH3 domain containing kinase binding protein 1) | 1 | 3 | 65.2 | active
MAD1L1 (mitotic arrest deficient 1 like 1) | 1 | 1 | 51.1 | active
MAD1L1 (mitotic arrest deficient 1 like 1) | 1 | 2 | 29.1 | active
MAD1L1 (mitotic arrest deficient 1 like 1) | 1 | 3 | 53.8 | active
EID1 (EP300 interacting inhibitor of differentiation 1) | 1 | 1 | 57.9 | active
EID1 (EP300 interacting inhibitor of differentiation 1) | 1 | 2 | 53.3 | active
EID1 (EP300 interacting inhibitor of differentiation 1) | 1 | 3 | 55.7 | active
